Reference: paper PMC3436762
These are yes or no findings as the source states them, for the method shown. Binding seen in cells or lysates may run through a third protein. Some results given as binding are weak or reduced against the parent protein; the word gives no strength.

Target: membrane DR5 (endogenous, Jurkat and Daudi cells) (human (endogenous in Jurkat and Daudi)), O14763
Experiment: co-IP; Jurkat cells treated with LaDR5 for 1 hour at 37°C, lysed in 20 mM Tris-HCl, 150 mM NaCl, 10 % glycerol, 2 mM EDTA, 1 % NP-40, pH 8.0; protein A beads; blot for FADD and caspase-8
Settings: remark: other sources report otherwise

B1: caspase-8, Q14790 1-479 (enzyme)
chain: MDFSRNLYDIGEQLDSEDLASLKFLSLDYIPQRKQEPIKDALMLFQRLQEKRMLEESNLSFLKELLFRINRLDLLITYLNTRKEEMERELQTPGRAQISAYRVMLYQISEEVSRSELRSFKFLLQEEISKCKLDDDMNLLDIFIEMEKRVILGEGKLDILKRVCAQINKSLLKIINDYEEFSKERSSSLEGSPDEFSNGEELCGVMTISDSPREQDSESQTLDKVYQMKSKPRGYCLIINNHNFAKAREKVPKLHSIRDRNGTHLDAGALTTTFEELHFEIKPHDDCTVEQIYEILKIYQLMDHSNMDCFICCILSHGDKGIIYGTDGQEAPIYELTSQFTGLKCPSLAGKPKVFFIQACQGDNYQKGIPVETDSEEQPYLEMDLSSPQTRYIPDEADFLLGMATVNNCVSYRNPAEGTWYIQSLCQSLRERCPRGDDILTILTEVNYEVSNKDDKKNMGKQMPQPTFTLRKKLVFPSD
In the case of B1, the binding is reported as “binds”.
